The source of these data is publication PMC5584760, “Rational design of drug-like compounds targeting Mycobacterium marinum MelF protein” (PLoS ONE, 2017).

For this data set, the system named is MelF protein. Briefly: Circular dichroism (CD) spectroscopy with and without inhibitors. To be noted: CD far-UV 190–260 nm, K2D3, percentage; for β-Sheets content of MelF in presence of inhibitor: MelF alone 0.01; for α-Helices content of MelF in presence of inhibitor: MelF alone 91.77. Also on record: species or system Mycobacterium marinum.

Consider “N~1~,N~1~-diethyl-N~4~-{6-methoxy-2-[2-(4-nitrophenyl)vinyl]-4-quinolinyl}-1,4-pentanediamine [compound 5255829]”, for which the “β-Sheets content of MelF in presence of inhibitor” value (“β-Sheets content … of inhibitor” below) amounted to 0.01 and the “α-Helices content of MelF in presence of inhibitor” value (shortened to “α-Helices content … of inhibitor”) is on record as 91.76.
The matching figures for `c1ccc(CC(Cc2nc3ccccc3[nH]2)c2nc3ccccc3[nH]2)cc1` (stereo not drawn) [compound 5255825, 2,2'-(3-phenyl-1,2-propanediyl)bis-1H-benzimidazole]: 0.01 and 93.21.
On the same counts, the results for `CC(C)COc1ccc(-c2nn(-c3ccccc3)cc2CO)cc1` [compound 5175552, [3-(4-isobutoxyphenyl)-1-phenyl-1H-pyrazol-4-yl]methanol] are 0.01 and 91.76.
The matching figures for “2-{[(2-methyl-6-phenyl-4-pyrimidinyl)thio]methyl}-1H-benzimidazole [compound 6513745]”: 0.01 and 93.72.
For the compound “2,2'-[3-(3-methoxyphenyl)-1,2-propanediyl]bis-1H-benzimidazole [compound 9125618]”, the “β-Sheets content … of inhibitor” value came to 0.01 and the “α-Helices content … of inhibitor” value worked out at 91.77.
With `CCC(C)c1ccc(OCCSc2nc3ccccc3[nH]2)cc1` (stereo not drawn) [compound 6492687, 2-{[2-(4-sec-butylphenoxy)ethyl]thio}-1H-benzimidazole], the “β-Sheets content … of inhibitor” value came out at 0.01 and the “α-Helices content … of inhibitor” value was 94.75.
